Data reported in PubChem BioAssay AID504444 (National Center for Advancing Translational Sciences (NCATS), 2011).
Screen size: about 360,000 compounds; about 7,500 (2.1%) were called active. This list was built around the results that the source calls inconclusive (neither active nor inactive); the mix of calls is not that of the screen. Calls follow the shape of the dose curve; as a rule, active = well fitted inhibition curve with a large enough effect; inconclusive = small, poorly fitted or top-dose-only effect, or effect the other way; inactive = flat fitted curve, though single readings scatter. Where the call is inconclusive, the potency comes from a doubtful curve fit.

Assay: Nrf2 qHTS screen for inhibitors; also: nearly all actives have a fitted effect of over 60% in size
Settings: A549 ARE-Fluc reporter, luciferase luminescence, 18-24 h; activity change, negative = inhibition: at 46 µM (top of the series)
Procedure, shortened: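 In this cell-based qHTS, ARE-driven firefly luciferase in A549 cells reports Nrf2 activity; the luminescent signal after BugLite lysis is the measured value, with a prior CellTiter-Fluor read for cell health.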
% is scaled to controls: 0 for no effect and ±100 for the full control effect; potency is read from the fitted curve at half-maximal effect.

SMILES | activity change, negative = inhibition | Potency
Cc1ccc(O)c(C(CC(=O)NC(C)C)c2ccccc2)c1 (configuration not stated) | inactive: -18.3% | –
Cc1ccccc1Nc1nc(N)c2ccccc2n1 | – | inconclusive: 1.64 µM [activator, partial curve, poor fit]
O=S(=O)(c1ccc(Cl)cc1)c1nc(-c2ccco2)oc1N1CCOCC1 | – | inconclusive: 2.91 µM [falling, partial curve]
Cn1nc(-c2ccc(OCC(N)=O)cc2)c2ccccc2c1=O | – | inconclusive: 0.103 µM [falling, full curve, poor fit]
COc1ccc(/C=C2/SC(=S)N(CCCC(=O)Nc3cccc(O)c3)C2=O)cc1 | – | inconclusive: 2.31 µM [falling, partial curve]
CC1CCN(C(=O)CN(CCc2ccccc2)S(C)(=O)=O)CC1 | – | inconclusive: 23.1 µM [activator, single point]
COC(=O)c1cc(-c2cc(OC)ccc2OC)nc2c1c(=O)n(C)c(=O)n2Cc1ccccc1 | – | inconclusive: 23.1 µM [falling, single point]
COc1ccc(-c2cccc(C(=O)N3CCOCC3)c2)cc1 | – | inconclusive: 25.9 µM [activator, single point]
CCOC(=O)c1c(C2CCN(C(=O)OCC)CC2)nc2ccccn12 | – | inconclusive: 13 µM [falling, partial curve, poor fit]
Cc1ccc2nc(NC(=O)CSc3[nH]c(=O)ncc3C)sc2c1 | – | inconclusive: 13 µM [activator, partial curve]
Brc1ccc(-c2nc(-c3ccccn3)no2)o1 | – | inconclusive: 2.59 µM [activator, partial curve]
O=C(NNC(=O)c1cnccn1)c1ccc(Cl)c(Cl)c1 | – | inconclusive: 25.9 µM [falling, single point]
CCCN(CC(=O)Nc1cccc(Br)c1)CC(=O)Nc1ccc(F)c(F)c1F | – | inconclusive: 29.1 µM [falling, single point]
CCOc1ccc(NC(=O)c2cc3cc4ccc(OC)cc4nc3o2)cc1 | – | inconclusive: 0.231 µM [falling, full curve, poor fit]
COc1ccc(OC)c(C2C(C(=O)c3ccc(C)o3)=C(O)C(=O)N2CCCN2CCOCC2)c1 (configuration not stated) | – | inconclusive: 20.6 µM [activator, single point]
CCCCOc1ccc(C2c3c(oc4ccc(C)cc4c3=O)C(=O)N2CCCN(C)C)cc1OCC (configuration not stated) | inactive: 15.7% | –
O=c1cc(CN2CCN(c3ccccc3F)CC2)c2cc3c(cc2o1)CCCC3 | inactive: 6.81% | –
CCOC(=O)c1ccc(-c2ccc(C=O)o2)cc1 | – | inconclusive: 13 µM [activator, partial curve]
CCc1n[nH]c(=O)c2cc3cc(OC)ccc3n12 | – | inconclusive: 18.4 µM [falling, single point]
COc1ccc(S(=O)(=O)N2CCN(c3ccccc3OC)CC2)cc1C(=O)N1CCCCC1 | – | inconclusive: 13 µM [falling, partial curve, poor fit]
Fc1ccccc1OCC1CCCN(Cc2nc(CC3CC3)no2)C1 (configuration not stated) | inactive: 1.02% | –

Gathered by group, the entries above with fluorine
SMILES | activity change, negative = inhibition | Potency
CCCN(CC(=O)Nc1cccc(Br)c1)CC(=O)Nc1ccc(F)c(F)c1F | – | inconclusive: 29.1 µM [falling, single point]
O=c1cc(CN2CCN(c3ccccc3F)CC2)c2cc3c(cc2o1)CCCC3 | inactive: 6.81% | –
Fc1ccccc1OCC1CCCN(Cc2nc(CC3CC3)no2)C1 (configuration not stated) | inactive: 1.02% | –

The listing continues.

SMILES | activity change, negative = inhibition | Potency
CCOC(=O)c1cn2nc(Oc3ccccc3)ccc2n1 | – | inconclusive: 5.8 µM [activator, partial curve, poor fit]
O=C(CCN1C(=O)c2ccccc2S1(=O)=O)Nc1nc2c(s1)CCCC2 | – | inconclusive: 18.4 µM [activator, partial curve, poor fit]
COc1ccc(C(F)(F)F)cc1N/C=C/c1nnnn1-c1ccc(C)cc1 | – | inconclusive: 25.9 µM [activator, single point]
S=C(NCc1ccco1)N1CCN(Cc2ccc(Cl)cc2Cl)CC1 | – | inconclusive: 23.1 µM [falling, single point]
COc1ccc2cc(C(=O)C3CCCN(C(=O)c4cnccn4)C3)ccc2c1 (configuration not stated) | – | inconclusive: 7.31 µM [falling, partial curve]
COc1cccc(NC(=O)c2nc(SC)ncc2Cl)c1 | inactive: 1.41% | –
CCN(CC)CCNC(=O)C1CCN(C(=O)c2cnn(-c3ccccc3)c2-n2cccc2)CC1 | inactive: 23.7% | –
COc1ccc(CCn2nc(C)c([N+](=O)[O-])c2C)cc1 | – | inconclusive: 25.9 µM [activator, single point]
CC(C)(C)c1ccc(Oc2ccc(NC(=O)c3ccccc3C(=O)O)cn2)cc1 | – | inconclusive: 16.4 µM [falling, single point]
O=C1Nc2ccccc2Oc2cc([N+](=O)[O-])cc(Oc3ccccc3)c21 | – | inconclusive: 7.31 µM [falling, partial curve]
Cc1ccc(C(=O)Nc2nnn(C)n2)cc1 | – | inconclusive: 11.6 µM [activator, partial curve]
CCCCN(CCCNC(=O)c1cc(Nc2cccc(SC)c2)nc2ccccc12)Cc1ccccc1 | – | inconclusive: 29.1 µM [falling, single point]
CN(C)c1ncnc2c1ncn2C1OC(CO)C(O)C1O (configuration not stated) | – | inconclusive: 5.17 µM [falling, full curve, poor fit]
COC(=O)c1c(NC(C)=O)c2c3c(sc2n1Cc1cc(C)ccc1C)CCCC3 | – | inconclusive: 32.6 µM [activator, single point]
Cc1cccc(-n2c(C)cc(C(=O)C(=O)Nc3ccccc3F)c2C)c1C | inactive: 16.7% | –
Cc1cc([N+](=O)[O-])ccc1NC(=O)COc1nsnc1N1CCOCC1 | – | inconclusive: 29.1 µM [activator, single point]
O=C(N/N=C/c1cccnc1)c1ccc(NC(=O)c2cccc(Cl)c2)cc1 | – | inconclusive: 23.1 µM [falling, partial curve]
COc1ccccc1CNC(=O)c1ccccc1OC | – | inconclusive: 0.0052 µM [falling, full curve, poor fit]
COC(=O)c1c(NC(=O)COC(=O)c2ccc(C)s2)sc2c1CCCCC2 | inactive: 5.05% | –
CCN1C(=O)C(CC(=O)Nc2ccc(F)cc2)N(Cc2ccc3c(c2)OCO3)C1=S (configuration not stated) | – | inconclusive: 20.6 µM [falling, single point]
Cc1ccc(S(=O)(=O)N2CCC(N3CCN(Cc4ccccc4)C(=O)C3=O)CC2)cc1C | – | inconclusive: 16.4 µM [activator, single point]
